No constants are given. Whether binding was seen depends on the method and setting. In cells and extracts the contact can be indirect. These calls come from enrichment with a bait or labelling near it, and not all partners need be listed.
Biological target: MR1-GFP (MHC class I related protein-1 fused to GFP) (UniProt Q95460)
Test: affinity purification with mass spectrometry; HF cells expressing MR1-GFP or control GFP infected with HCMV for 48 h; proteins immuno-affinity isolated using the GFP tag, interacting partners identified by mass spectrometry

Sequences of proteins named here, by UniProt entry; tags and fusion partners are left off. Residues count along the entry.
UniProt Q95460, residues 23-341: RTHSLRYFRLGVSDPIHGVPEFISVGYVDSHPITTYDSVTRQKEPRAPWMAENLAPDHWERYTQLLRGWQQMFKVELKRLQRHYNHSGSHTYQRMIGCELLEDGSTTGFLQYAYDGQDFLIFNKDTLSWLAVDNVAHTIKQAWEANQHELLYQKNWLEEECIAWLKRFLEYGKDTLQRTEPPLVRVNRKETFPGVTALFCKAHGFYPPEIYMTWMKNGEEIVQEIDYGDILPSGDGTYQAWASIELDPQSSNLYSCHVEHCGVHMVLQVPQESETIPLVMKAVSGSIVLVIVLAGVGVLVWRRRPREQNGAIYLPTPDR
UniProt P09729, residues 28-247: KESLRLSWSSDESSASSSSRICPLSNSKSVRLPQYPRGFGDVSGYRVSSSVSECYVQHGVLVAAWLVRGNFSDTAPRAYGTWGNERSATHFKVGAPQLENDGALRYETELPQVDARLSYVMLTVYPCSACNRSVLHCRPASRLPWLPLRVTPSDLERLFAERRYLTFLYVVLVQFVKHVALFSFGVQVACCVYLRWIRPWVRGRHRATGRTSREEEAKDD

## HCMV glycoprotein gpUS9 (US9 gene product) (from UniProt P09729 28-247)
  binding: binds
